Measurements reported in PubChem BioAssay AID1259424 (University of Nebraska Medical Center, 2018).

- Screen: 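Rank knockdowns across the genome by resemblance to the KSR1 depletion profile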 (primary screen)
- Cells: human HCT116 colon cancer cells
- Reagent: siRNA pool against human genes, 50 nM
- Read-out: 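Six signature mRNAs by branched-DNA multiplex assay, scaled to two housekeeping genes and non-targeting median, log2; matched to mean KSR1 knockdown profile by Pearson correlation and euclidean distance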
- Direction: mean correlation with KSR1 profile and KSR1 correlation: higher = expression change more like KSR1 knockdown; mean distance from KSR1 profile: higher = expression change less like KSR1 knockdown
The whole screen tested about 14,000 reagents; this is a part drawn at random. 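Higher correlation or smaller distance means closer resemblance to KSR1 loss; control wells, including KSR1 knockdowns, recur on many plates.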 Further read-outs or replicates are left out here. Not given: the time to read-out.

The opening 2 entries as a preview:
no.	Gene	mean correlation with KSR1 profile	mean distance from KSR1 profile	KSR1 correlation, replicate 1
1	PRRG4 (GeneID 79056)	-0.552	2.83	-0.487
2	PON2 (GeneID 5445)	0.201	1.21	0.2

The listing, repeating the preview:
no.	Gene	mean correlation with KSR1 profile	mean distance from KSR1 profile	KSR1 correlation, replicate 1
1	PRRG4 (GeneID 79056)	-0.552	2.83	-0.487
2	PON2 (GeneID 5445)	0.201	1.21	0.2
3	SLC4A2 (GeneID 6522)	0.12	1.64	0.0766
4	ACAD11 (GeneID 84129)	0.803	0.861	0.698
5	ADIPOQ (GeneID 9370)	-0.483	2.12	-0.65
6	ELAVL2 (GeneID 1993)	-0.282	2.12	0.158
7	H1-2 (GeneID 3006)	0.598	2.62	0.586
8	PTPRT (GeneID 11122)	0.876	0.602	0.954
9	THRSP (GeneID 7069)	-0.563	2.51	-0.651
10	PTGIR (GeneID 5739)	0.527	2.49	0.595
11	FAIM (GeneID 55179)	-0.27	2.12	-0.584
12	SPAG5 (GeneID 10615)	0.0757	2.5	0.035
13	SLC22A5 (GeneID 6584)	-0.341	2.07	-0.226
14	SLC4A4 (GeneID 8671)	0.0969	1.21	0.000964
15	MAP1A (GeneID 4130)	-0.622	1.23	-0.35
16	NBPF3 (GeneID 84224)	0.297	1.41	0.616
17	TIAM1 (GeneID 7074)	-0.196	2.24	-0.00287
18	HOXC6 (GeneID 3223)	-0.199	3.05	-0.000474
19	VAMP8 (GeneID 8673)	0.527	2.83	0.468
20	ERV3-2 (GeneID 57612)	0.199	2.56	0.177
